Assay results taken from PubChem BioAssay AID624297 (National Center for Advancing Translational Sciences (NCATS), 2012).
The campaign covered roughly 340,000 compounds. About 6,200 (1.8%) were called active. The inconclusive results got no clear call from the source; some entries with a clear call stand among them for comparison. Calls follow the shape of the dose curve; as a rule, active = well fitted activation curve with a large enough effect; inconclusive = small, poorly fitted or top-dose-only effect; inactive = no such curve, though single readings can be large or run the other way. Potencies beside an inconclusive call are fits to weak or partial responses and may not hold up.

assay: A quantitative high throughput screen for small molecules that induce DNA re-replication in SW480 colon adenocarcinoma cells.; also: nearly all actives have a fitted effect of over 55% in size; as to re-replication activation: % of control where 0% means no effect; conditions: Hoechst DNA content imaging, 48 h; re-replication activation: at 46.1 µM (top of the series) unless noted
Procedure, shortened: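 First, 250 cells per well were seeded. Next, compound or vehicle (23 nL) was pinned in, plates sat 48 hr at 37 C. Finally Hoechst was added for 40 min before fluorescence scanning.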
Potency is read from the fitted curve at half-maximal effect.

| Structure (SMILES) | Potency | re-replication activation |
| --- | --- | --- |
| CCOc1ccccc1NC(=O)CCN1CCN(S(=O)(=O)c2ccc(Br)cc2)CC1 | inconclusive: 25.9 µM [activator, single point] | – |
| COc1ccc2[nH]c(C)c(CCNC(=S)Nc3ccccc3OC)c2c1 | inconclusive: 0.92 µM [activator, full curve, poor fit] | – |
| O=C(/C=C/c1ccc(Cl)cc1Cl)N1CCN(c2ccccc2[N+](=O)[O-])CC1 | inconclusive: 29.1 µM [activator, single point] | – |
| COc1ccc(-n2nc(C(=O)c3cccs3)cc(-c3nc4ccccc4[nH]3)c2=N)cc1 | inconclusive: 0.461 µM [activator, full curve, poor fit] | – |
| O=C(C[C@@H]1C/C=C\CC[C@H](Cc2ccc(F)cc2)C(=O)OC[C@@H]2CCCN2C1=O)N[C@H](CO)Cc1ccccc1 | inconclusive: 16.4 µM [activator, single point] | – |
| COC(=O)c1cn(CCOc2ccccc2F)c2ccccc12 | inconclusive: 18.4 µM [activator, partial curve, poor fit] | – |
| CC1=C(C(=O)OCC2CCCO2)C(c2ccc(Cl)c(Cl)c2)NC(=O)N1 (centres undefined) | inconclusive: 20.6 µM [activator, partial curve, poor fit] | – |
| O=C(CSc1nnc(-c2ccccn2)o1)Nc1ccccc1Cl | inactive | – |
| CCc1[nH]nc2c1C(C1C=CCCC1)C(C#N)=C(N)O2 (centres undefined) | inconclusive: 23.1 µM [activator, single point] | – |
| O=C(Cn1c(C(=O)N2CCN(C3CCCCC3)CC2)cc2sccc21)c1ccccc1 | inactive | – |
| Nc1cccnc1Sc1ccc([N+](=O)[O-])cn1 | inconclusive: 6.51 µM [activator, single point] | – |
| CCn1cc([N+](=O)[O-])c(C(=O)N2CCCCCC2)n1 | inconclusive: 0.184 µM [activator, full curve, poor fit] | – |
| CC(C)(C)c1cc[n+](-c2[nH]c(=O)sc2/C=N/NC(=O)c2ccccc2[O-])cc1 | inconclusive: 8.2 µM [activator, partial curve] | – |
| CCOc1ccccc1NC(=O)COC(=O)c1ccccc1SCC(=O)N1CCCC1 | inconclusive: 0.184 µM [activator, full curve, poor fit] | – |
| CCNC(=O)CC1S/C(=N/N=C(\C)c2ccccc2)NC1=O (centres undefined) | inactive | – |
| O=C(CSc1nnc(COc2ccc(Cl)cc2Cl)o1)Nc1ccccn1 | inconclusive: 29.1 µM [activator, single point] | – |
| NS(=O)(=O)c1ccc(NC2=CC(=O)C(=O)c3ccccc32)cc1 | active: 3.26 µM | – |
| c1ncn(C23CC4CC(CC(C4)C2)C3)n1 | inactive | – |
| Cc1ccc(C(=O)NC(=S)N2CCN(C)CC2)cc1 | inactive | – |
| CC(Oc1ccc(Cl)cc1)C(=O)Nc1ccc(S(=O)(=O)Nc2nccs2)cc1 (centres undefined) | inactive | – |
| COc1cccc(N2CCN(C(=O)CCCCCNc3nc(=S)[nH]c4ccccc34)CC2)c1 | inconclusive: 20.6 µM [activator, single point] | – |
| Cc1ccc(-n2c3c(c(O)c(-c4ccccc4)c2=O)C(=O)CC(C)(C)C3)cc1 | inconclusive: 1.84 µM [activator, full curve, poor fit] | – |
| CCc1cc2c(Sc3nc4ccccc4s3)ncnc2s1 | inconclusive: 4.61 µM [activator, single point] | – |

| Structure (SMILES) | Potency | re-replication activation |
| --- | --- | --- |
| Brc1ccc(COn2ccnc2)cc1 | inconclusive: 0.82 µM [activator, partial curve, poor fit] | – |
| Cn1c(=O)c2ccccc2n2c(=S)[nH]nc12 | inactive | – |
| COc1ccc(OCC(=O)Nc2ccccc2C(=O)NC2CC2)cc1 | inactive | – |
| COc1ccc(/C=N/NC(=S)Nc2cc(S(=O)(=O)N3CCOCC3)ccc2N2CCOCC2)cc1O | inconclusive: 29.1 µM [activator, single point] | – |
| Cc1ccc(S(=O)(=O)N2CCN(C(=O)c3ccc4ccccc4n3)CC2)c(C)c1 | inactive | – |
| CCc1cc2c(=O)c(-c3ccc4c(c3)OCCO4)coc2c(CN2CCCCC2C)c1O (centres undefined) | inconclusive: 29.1 µM [activator, single point] | – |
| CCOC(=O)N/N=C/c1cn(CCCOc2ccccc2)c2ccccc12 | inconclusive: 25.9 µM [activator, single point] | – |
| O=C1CC(c2ccccc2)=Nc2ccc(Br)cc2N1 | inconclusive: 18.4 µM [activator, single point] | – |
| Cc1cccc(C)c1NC(=O)CN(C)CC(=O)Nc1sc2c(c1C(N)=O)CCC2 | inactive | – |
| CC1=NN(C(=O)c2ccc(C)cc2)C(O)(C(F)(F)OC(F)(F)F)C1 (centres undefined) | inactive | – |
| COc1cc(O)c(C(CC(=O)N2CCCC(C)C2)c2ccc(N(C)C)cc2)c(OC)c1 (centres undefined) | – | inactive: -21.1% [at 9.22 µM] |
| Cc1ccnc(NC(=O)c2oc3ccccc3c2C)c1 | inconclusive: 1.64 µM [activator, partial curve, poor fit] | – |
| C=C1CCC[C@]2(C)C[C@H]3OC(=O)C(CN(Cc4ccc(OC)c(OC)c4)CC(C)O)[C@H]3CC12 (some centres undefined) | inconclusive: 20.6 µM [activator, single point] | – |
| Cc1ccc(Cl)c(OCCCN(C)Cc2ccccc2)c1 | inconclusive: 29.1 µM [activator, single point] | – |
| COC(=O)C(Cc1ccccc1)NC(=O)CCC(=O)NC(C)CCc1ccccc1 (centres undefined) | inconclusive: 2.91 µM [activator, partial curve, poor fit] | – |
| CC(=O)NC(CSC(CC(=O)c1ccco1)c1ccc(C)cc1)C(=O)O (centres undefined) | inconclusive: 29.1 µM [activator, single point] | – |
| O=C(NNC(=S)Nc1ccc(Br)cc1)c1ccc(N2CCOCC2)c([N+](=O)[O-])c1 | inactive | – |
| Brc1ccc(C2=Nn3c(nnc3-c3n[nH]c4c3CCC4)SC2)cc1 | inconclusive: 1.64 µM [activator, full curve, poor fit] | – |
| COc1ccc(C(C(=O)NC2CCCCC2)N(C(=O)c2snc(C(N)=O)c2N)c2ccccc2OC)cc1 (centres undefined) | inconclusive: 23.1 µM [activator, single point] | – |
| c1ccc(-c2cn(C[C@H]3CC[C@H](Cn4cc(-c5ccccn5)nn4)O3)nn2)nc1 | inactive | – |
| Cc1ccc(N(CC(O)Cn2c3ccccc3c3ccccc32)S(C)(=O)=O)cc1 (centres undefined) | inactive | – |
| COc1ccc(OCC(=O)Nn2c(-c3ccc(C)cc3)nc3ccccc3c2=O)cc1 | inconclusive: 0.326 µM [activator, full curve, poor fit] | – |
| CC(=O)NNc1ncnc2c1cnn2-c1ccc(C)cc1 | inconclusive: 6.51 µM [activator, single point] | – |

Structural class, the entries above containing a furan ring, fused or not.

| Structure (SMILES) | Potency | re-replication activation |
| --- | --- | --- |
| Cc1ccnc(NC(=O)c2oc3ccccc3c2C)c1 | inconclusive: 1.64 µM [activator, partial curve, poor fit] | – |
| CC(=O)NC(CSC(CC(=O)c1ccco1)c1ccc(C)cc1)C(=O)O (centres undefined) | inconclusive: 29.1 µM [activator, single point] | – |

(continued)

| Structure (SMILES) | Potency | re-replication activation |
| --- | --- | --- |
| O=C(Nc1ccc2nc(-c3ccco3)c(-c3ccco3)nc2c1)NC1CC1 | inconclusive: 29.1 µM [activator, partial curve, poor fit] | – |
| CCOC(=O)c1sc2nc3c(cc2c1N)COC(C)(CC)C3 (centres undefined) | inconclusive: 23.1 µM [activator, single point] | – |
| Cc1onc(-c2c(F)cccc2Cl)c1C(=O)Nc1sc2c(c1C(N)=O)CCC2 | inconclusive: 11.2 µM [activator, partial curve, poor fit] | – |
| C[C@]12CCC(=O)C=C1[C@H](O)C[C@@H]1[C@@H]2[C@@H](O)C[C@@]2(C)[C@H]1CC[C@]2(O)C(=O)CO | inconclusive: 2.82 µM [activator, partial curve, poor fit] | – |
| CC(Oc1ccc(Cl)cc1)C(=O)Nc1sccc1C(N)=O (centres undefined) | inactive | – |
| Oc1ccc(-c2n[nH]c(C(F)(F)F)c2-c2ccccc2)c(O)c1 | inactive | – |
| CC(Nc1nc(N2CCNCC2)nc2ccccc12)c1ccccc1 (centres undefined) | inactive | – |
| CCc1cccc(NC(=O)c2ccc(Br)o2)c1 | inactive | – |
| Cc1[nH]c(=O)c(C#N)c(C)c1[N+](=O)[O-] | inactive | – |
| O=C(N/C(=C/c1ccc(Br)cc1)C(=O)N1CCCCC1)c1ccccc1F | inconclusive: 25.9 µM [activator, partial curve, poor fit] | – |
| CCc1ccc(N=C2NC(=O)CS2)cc1 | inactive | – |
| O=C(c1ccc([N+](=O)[O-])o1)N1CCN(c2nc3c(Cl)cccc3s2)CC1 | inconclusive: 29.1 µM [activator, single point] | – |
| CCc1cccc(CC)c1NC(=O)CSc1nc2ccc(N3C(=O)C4C5C=CC(C5)C4C3=O)cc2s1 (centres undefined) | inactive | – |
| COc1ccc2ccc(O)c(CN3CCN(S(=O)(=O)c4cccc(C(F)(F)F)c4)CC3)c2c1 | inconclusive: 29.1 µM [activator, single point] | – |
| CC(=O)Oc1ccc(N(C(C)=O)S(=O)(=O)c2ccc(C)cc2)c2ccccc12 | inconclusive: 29.1 µM [activator, single point] | – |
| c1ccc(-c2nc(NCc3ccco3)c3oc4ccccc4c3n2)cc1 | inactive | – |
| CCS(=O)(=O)c1ccc(N=Nc2ccc(O)c3ncccc23)c(OC)c1 | active: 4.61 µM | – |
| Cc1ccc(-c2noc(CCC(=O)NCc3ccccc3CN3CCOCC3)n2)cc1 | inconclusive: 6.51 µM [activator, partial curve, poor fit] | – |
| CN(CC12CC3CC(CC(C3)C1)C2)C(=O)c1ccco1 | inconclusive: 29.1 µM [activator, single point] | – |
| Cc1ccccc1NC1=C/C(=N\S(=O)(=O)c2cccs2)c2ccccc2C1=O | active: 4.11 µM | – |
| C#CCOc1ccccc1CNC1CCN(Cc2ccccc2)CC1 | inactive | – |
| CCOc1ccc(-c2csc(/C(C#N)=C\c3ccc(O)c([N+](=O)[O-])c3)n2)cc1 | inconclusive: 20.6 µM [activator, single point] | – |
| CCC(C)c1ccccc1NC(=O)C(C)N(C)Cc1cccc(OC)c1 (centres undefined) | inconclusive: 29.1 µM [activator, partial curve, poor fit] | – |

2 compounds picked at random from those above:

| Structure (SMILES) | Potency | re-replication activation |
| --- | --- | --- |
| Brc1ccc(C2=Nn3c(nnc3-c3n[nH]c4c3CCC4)SC2)cc1 | inconclusive: 1.64 µM [activator, full curve, poor fit] | – |
| COc1ccc(C(C(=O)NC2CCCCC2)N(C(=O)c2snc(C(N)=O)c2N)c2ccccc2OC)cc1 (centres undefined) | inconclusive: 23.1 µM [activator, single point] | – |
